Test results reported in PubChem BioAssay AID258 (DTP/NCI, 2004).
The list shows only some results of the screen, not a fair sample: it gathers tests that were run many times, whatever their T/C, doses with no T/C, and many T/C values between a quarter and a half above the control. Other doses and runs of a compound stand elsewhere. T/C is the treated group as % of the vehicle group. Some doses have a count of surviving animals in place of a T/C: the source holds a T/C of zero for them, seemingly a mark for toxic or unscored doses. Some survivor counts are full or nearly so, which does not show that the dose was tolerated: the source hardly ever lists a survival T/C far under the control, and the zero likely stands for such cases as well. Survivors were counted at the toxicity check, usually on the fifth day, unless a day is given; later deaths do not show. Schedule codes are those of the source, read here as Q, the interval in days (D) or hours (H), X, the number of doses. Some schedule codes hold Z or #, which are not explained here. For survival time, this PubChem deposit counts one and a half times the control or more as active, and values a quarter to a half above the control carry no call in these data; other NCI protocols may use other cut-offs. Some T/C values are followed by the survivors on the day toxicity was checked, most often the fifth; without a count, all were alive then.

System: CD2F1 mice, L1210 leukemia sc, survival T/C
Test: NCI In Vivo Anticancer Drug Screen. Data for tumor model L1210 Leukemia (subcutaneous) in CD2F1 (CDF1) mice
Conditions: T/C endpoint: median survival time, higher T/C = longer survival
Procedure, shortened: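 Compound given to mice bearing transplantable tumor. Survival or tumor size then recorded. Result expressed relative to vehicle-dosed control group as T/C.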

With `OC(CBr)C(O)C(O)C(O)CBr` (configuration not stated) as the molecule, how does the survivor count (dose: 65.0 mg/kg/injection, schedule: Q01DX Z (sc), vehicle: carboxymethylcellulose (CMC)) read?
Its survivor count is 5 of 8.

And the survivor count (dose: 80.0 mg/kg/injection, schedule: Q01DX009 (sc), vehicle: saline with Tween-80)?
The survivor count was 4 of 10.

What about the T/C (dose: 160.0 mg/kg/injection, schedule: Q01DX009 (ip), vehicle: saline) of the same molecule?
Its T/C is 125 % of control.

What about the survivor count (dose: 180.0 mg/kg/injection, schedule: Q01DX Z (sc), vehicle: carboxymethylcellulose (CMC)) of the same molecule?
Its survivor count is 4 of 8.

What about the T/C (dose: 320.0 mg/kg/injection, schedule: Q01DX009 (ip), vehicle: saline with Tween-80) of the same molecule?
The T/C was 134 % of control.

And the T/C (dose: 320.0 mg/kg/injection, schedule: Q01DX009 (ip), vehicle: saline)?
The T/C was 145 % of control.

What about the T/C (dose: 320.0 mg/kg/injection, schedule: Q01DX009 (sc), vehicle: saline + alcohol) of the same molecule?
The T/C was 131 % of control [9 of 10 alive].

And the T/C (dose: 640.0 mg/kg/injection, schedule: Q01DX009 (ip), vehicle: saline)?
Its T/C is 145 % of control [9 of 10 alive].

What about the survivor count (dose: 640.0 mg/kg/injection, schedule: Q01DX009 (sc), vehicle: saline + alcohol) of the same molecule?
The survivor count was 10 of 10.

How did the T/C (dose: 1.25 mg/kg/injection, schedule: Q01DX005 (iv), vehicle: water) turn out when `C[C@H](N)C(=O)N[C@@H]1[C@H]2C(=C(O)C[C@@H](O)[C@@H]2O)C(=O)O[C@]1(C)C(Cl)Cl` was run?
The T/C was 125 % of control.

What about the T/C (dose: 1.5 mg/kg/injection, schedule: Q01DX009 (ip), vehicle: water) of the same molecule?
The T/C was 149 % of control.

And the T/C (dose: 1.5 mg/kg/injection, schedule: Q01DX009 (sc), vehicle: water)?
The T/C was 146 % of control.

What about the T/C (dose: 2.5 mg/kg/injection, schedule: Q01DX005 (ip), vehicle: water) of the same molecule?
Its T/C is 139 % of control [5 of 6 alive].

What about the T/C (dose: 2.5 mg/kg/injection, schedule: Q01DX005 (iv), vehicle: water) of the same molecule?
Its T/C is 139 % of control.

And the survivor count (dose: 5.0 mg/kg/injection, schedule: Q01DX005 (ip), vehicle: water)?
Its survivor count is 0 of 6.

And the survivor count (dose: 5.0 mg/kg/injection, schedule: Q01DX005 (iv), vehicle: water)?
The survivor count was 1 of 6.

What about the survivor count (dose: 6.0 mg/kg/injection, schedule: Q01DX009 (ip), vehicle: water) of the same molecule?
The survivor count was 0 of 6.

And the survivor count (dose: 6.0 mg/kg/injection, schedule: Q01DX009 (sc), vehicle: water)?
Its survivor count is 0 of 6.

And the survivor count (dose: 10.0 mg/kg/injection, schedule: Q01DX005 (ip), vehicle: water)?
Its survivor count is 0 of 6.

And the survivor count (dose: 10.0 mg/kg/injection, schedule: Q01DX005 (iv), vehicle: water)?
The survivor count was 0 of 6.

What about the survivor count (dose: 12.0 mg/kg/injection, schedule: Q01DX009 (sc), vehicle: water) of the same molecule?
Its survivor count is 0 of 6.

What about the T/C (dose: 24.0 mg/kg/injection, schedule: Q01DX009 (oral), vehicle: water) of the same molecule?
The T/C was 135 % of control [5 of 6 alive].
